Results on three sequences are retold here after patent publication US20050054012, “Methods of detecting and treating facioscapulohumeral muscular dystrophy” (published 2005).

Chains of the proteins cited; added tags and fusions are not shown. A line that says so, or that is headed by a name, gives the form on record, which may keep a tag or linker.
D4Z4 recognition complex (YY1, HMGB2, nucleolin) (Homo sapiens), one chain, as listed by the source, chain 1 of 3: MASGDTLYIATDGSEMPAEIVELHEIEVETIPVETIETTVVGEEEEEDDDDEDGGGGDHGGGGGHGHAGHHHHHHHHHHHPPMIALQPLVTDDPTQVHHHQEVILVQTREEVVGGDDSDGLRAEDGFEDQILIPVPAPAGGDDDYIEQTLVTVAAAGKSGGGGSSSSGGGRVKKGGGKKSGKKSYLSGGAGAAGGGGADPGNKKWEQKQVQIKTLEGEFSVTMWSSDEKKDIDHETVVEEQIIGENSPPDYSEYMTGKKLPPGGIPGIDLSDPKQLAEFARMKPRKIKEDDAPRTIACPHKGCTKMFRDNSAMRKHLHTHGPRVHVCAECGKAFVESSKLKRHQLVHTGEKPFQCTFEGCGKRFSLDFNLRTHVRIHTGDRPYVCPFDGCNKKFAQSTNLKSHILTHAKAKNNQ
D4Z4 recognition complex (YY1, HMGB2, nucleolin) (Homo sapiens), one chain, as listed by the source, chain 3 of 3: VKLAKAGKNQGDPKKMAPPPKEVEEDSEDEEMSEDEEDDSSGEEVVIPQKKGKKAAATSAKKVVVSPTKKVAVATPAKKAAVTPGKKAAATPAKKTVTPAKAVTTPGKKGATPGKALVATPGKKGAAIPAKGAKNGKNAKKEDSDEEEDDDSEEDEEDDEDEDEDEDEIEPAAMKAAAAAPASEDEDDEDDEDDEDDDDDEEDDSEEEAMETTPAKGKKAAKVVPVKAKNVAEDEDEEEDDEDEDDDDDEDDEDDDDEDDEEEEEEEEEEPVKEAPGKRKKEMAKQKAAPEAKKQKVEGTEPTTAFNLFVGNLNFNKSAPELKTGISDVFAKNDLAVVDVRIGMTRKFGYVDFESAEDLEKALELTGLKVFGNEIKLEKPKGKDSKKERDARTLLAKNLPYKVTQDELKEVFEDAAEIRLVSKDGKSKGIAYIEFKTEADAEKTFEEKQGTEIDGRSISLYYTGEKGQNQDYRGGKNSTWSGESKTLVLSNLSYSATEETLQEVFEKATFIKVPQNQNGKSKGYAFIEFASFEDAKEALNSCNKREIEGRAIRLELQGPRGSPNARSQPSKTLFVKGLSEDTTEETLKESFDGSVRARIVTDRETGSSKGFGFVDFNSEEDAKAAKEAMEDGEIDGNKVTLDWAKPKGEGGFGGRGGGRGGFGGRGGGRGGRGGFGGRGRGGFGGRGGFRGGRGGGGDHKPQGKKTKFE
D4Z4 recognition complex (YY1, HMGB2, nucleolin) (Homo sapiens), one chain, as listed by the source, chain 2 of 3: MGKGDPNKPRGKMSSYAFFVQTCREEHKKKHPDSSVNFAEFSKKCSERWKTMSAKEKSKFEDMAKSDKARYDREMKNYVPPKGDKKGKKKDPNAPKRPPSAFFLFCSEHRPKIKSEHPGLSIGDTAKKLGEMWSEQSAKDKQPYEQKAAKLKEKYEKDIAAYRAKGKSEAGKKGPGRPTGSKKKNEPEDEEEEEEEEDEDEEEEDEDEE

Where cells or extracts were used, other partners may take part. For part of these data: A negative result means that nothing was seen under these conditions.

Data set [1] has as its system D4Z4 recognition complex (YY1, HMGB2, nucleolin) (Homo sapiens). Description: footprint. To be noted: DNase I; HeLa nuclear extract, probe D4Z4-243; protein in an extract; protein details: HeLa nuclear extract or affinity-purified fraction; label: 32P end.
The test system is the same in data set [2]. Description: EMSA. Particulars: HeLa nuclear extract, protein in an extract, protein details: HeLa nuclear extract or affinity-purified fraction, label: 32P end.

“CCATTCATGAAGGGGTGGAGCCTGCCT (double strand) [DBE 27 bp within D4Z4-243]”: the binding result in data set [1] is given as “binds”.

Regarding “CTCACCGCCATTCATGAAGGGGTGGAGCCTGCCTG (double strand) [DBE WT probe]”, the binding result in data set [2] (anti-nucleolin and anti-HMGB2 supershift, anti-YY1 disrupts the shift) is listed as “binds”.

For the sequence “CTCACCGCCGCCCATGAAGGGGTGGAGCCTGCCTG (double strand) [DBE MUT probe]”, the binding result in data set [2] (variant of DBE WT probe) was “no binding”.
